This test concerns the target nucleotide-devoid, full-length FtsZ from M. jannaschii (Methanocaldococcus jannaschii) (UniProt Q57816). Description: right angle light scattering; 20 mM EDTA added to polymers of full-length FtsZ formed with GTP and BeF3-; both purified.

Results are given in words; binding and its absence hold for the method and conditions named.

B1: nucleotide-devoid, full-length FtsZ from M. jannaschii (natural protein, Methanocaldococcus jannaschii, UniProt Q57816 1-364, looked up)
chain: MKFLKNVLEEGSKLEEFNELELSPEDKELLEYLQQTKAKITVVGCGGAGNNTITRLKMEGIEGAKTVAINTDAQQLIRTKADKKILIGKKLTRGLGAGGNPKIGEEAAKESAEEIKAAIQDSDMVFITCGLGGGTGTGSAPVVAEISKKIGALTVAVVTLPFVMEGKVRMKNAMEGLERLKQHTDTLVVIPNEKLFEIVPNMPLKLAFKVADEVLINAVKGLVELITKDGLINVDFADVKAVMNNGGLAMIGIGESDSEKRAKEAVSMALNSPLLDVDIDGATGALIHVMGPEDLTLEEAREVVATVSSRLDPNATIIWGATIDENLENTVRVLLVITGVQSRIEFTDTGLKRKKLELTGIPKI
notes: full-length FtsZ from Methanocaldococcus jannaschii, nucleotide-devoid; also called apo-MjFtsZ; MjFtsZ; source: prepared as reported [55]
Turning to B1, the binding entry was “no binding (condition: with 20 mM EDTA)”.

The values above are taken from paper PMC8936486 (PLoS Biology, 2022).
